In PMC6290091:
The exact form of at least one protein or probe is not confirmed.

Target: PdWND1B (UniProt B9GIS7)
Assay: EMSA
Conditions: 5 mM MgCl2, poly dI:dC, positive control; LightShift EMSA: 1X binding buffer, 2.5% glycerol, 5 mM MgCl2, 50 ng/ul poly dI:dC, 0.05% NP-40, ~100 fmol DNA, 200-300 ng protein, 20 min, room temperature; recombinant protein; protein details: GST (N-terminal, pGEX-6P-1); label: biotin 3' end; probe letters rebuilt from the primers and the genome

Sequence: ACCTCTCTCATTTTCCCCTGCAGTCCCTCTCCAAACCGTTTTACTGCTCAGACCTCAGACTCATTCATCAACCAACCCCTCTCGCTCTCTCTCTCTCTCTCTCTCTCTCTCTTTCCTATATTCTAAGCAATACCCACAACCATCATCACCATCATGATCGGCATGCCCACTCTGCCAAGCTCCTCTCTCTCTTTCTCATAATCTGCCATTCTATAAAGCCTTAACTGATCTACATCAAACCAGTTGGGAAGAAATATATATATAGATCACCTTTCTAGTGACAGGGA (double strand) [PdMYB002 promoter]
- binding result: binds
